Literature values in patent publication US20060121117A1, “Anti-angiogenic compositions and methods of use” (ANGIOTECH PHARMACEUTICALS, INC., priority 1993, published 2006).

Details: cited from earlier work

Compound: CC(=O)O[C@H]1C(=O)[C@@]2(C)[C@H]([C@H](OC(=O)c3ccccc3)[C@]3(O)C[C@H](OC(=O)[C@H](O)[C@@H](NC(=O)c4ccccc4)c4ccccc4)C(C)=C1C3(C)C)[C@]1(OC(C)=O)CO[C@@H]1C[C@@H]2O [Paclitaxel]
- solubility in water: insoluble in water
